In paper PMC3172200:
Results are given in words; binding and its absence hold for the method and conditions named.

Chains of the proteins cited; added tags and fusions are not shown. Residues count along the entry.
UniProt P61823, residues 27-150: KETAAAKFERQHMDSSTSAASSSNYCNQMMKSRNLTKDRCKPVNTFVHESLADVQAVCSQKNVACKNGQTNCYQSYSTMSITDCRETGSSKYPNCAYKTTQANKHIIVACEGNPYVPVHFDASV

What was measured:
[1] = target: soluble CD28 comprising its extracellular domain fused to IgG1-Fc dimer (CD28-Fc) (human) (UniProt P10747); assay: SPR; both purified
[2] = target: egg white lysozyme (14.3 kD) (UniProt P00698); assay: far-Western, overlay or dot blot; both purified

Row | Substance | binding [1] | binding [2]
1 | ribonuclease A (from UniProt P61823 27-150) (enzyme) | no binding (tested: four 2-fold increments from 3.12 µM) | 
2 | soluble CD28 comprising its extracellular domain fused to IgG1-Fc dimer (CD28-Fc) (from UniProt P10747 19-152) (Fc fusion) |  | no binding (tested: 0.5 µg/ml CD28-Fc)
